Source: publication PMC9116668
These are yes or no findings as the source states them, for the method shown. Binding seen in cells or lysates may run through a third protein. A yes stands for co-enrichment or nearness to the bait. Other partners may have been found. Where a sequence is shown, tags or fusion partners need not be part of it. One block for each molecule: values may come before it.

Protein sequences, listed by entry. Tags and fused reporters are not part of them.
UniProt O18640: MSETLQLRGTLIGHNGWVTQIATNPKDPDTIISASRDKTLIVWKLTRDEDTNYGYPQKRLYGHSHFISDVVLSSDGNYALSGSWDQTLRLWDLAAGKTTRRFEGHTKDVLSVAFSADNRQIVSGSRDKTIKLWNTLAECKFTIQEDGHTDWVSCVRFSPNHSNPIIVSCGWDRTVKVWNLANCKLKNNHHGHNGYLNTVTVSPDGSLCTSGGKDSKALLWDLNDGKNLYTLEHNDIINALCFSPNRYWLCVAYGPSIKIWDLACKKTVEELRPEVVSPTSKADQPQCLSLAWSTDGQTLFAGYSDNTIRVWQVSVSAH

Target: T1, V5-tagged Diedel (wild type, Die^RGD-V5) (Drosophila melanogaster) (UniProt Q9VAK8)
T1 sequence: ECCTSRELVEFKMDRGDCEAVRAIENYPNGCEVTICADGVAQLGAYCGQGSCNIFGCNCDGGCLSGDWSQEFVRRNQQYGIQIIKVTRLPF
Assay: affinity purification with mass spectrometry; S2R+ cells treated with UV (100 mJ/cm^2), cultured 5 hours with conditioned media containing Die-V5-His (or Mock), crosslinked with 4% paraformaldehyde 5 minutes on ice, lysed with RIPA buffer, pulled down on HisPur Ni-NTA spin columns; excised gel bands or the total elution fraction analysed by mass spectrometry

- binding: binds
Molecule: Rack1 (from UniProt O18640 1-318)

- binding: binds
B1: Inositol-3-phosphate synthase (Inos) (enzyme, UniProt O97477 1-565)
chain: MKPTNNSTLEVISPKVQVDDEFITTDYDYQTSHVKRTADGQLQVHPQTTSLKIRTGRHVPKLGVMLVGWGGNNGSTLTAALEANRRQLKWRKRTGVQEANWYGSITQASTVFIGSDEDGGDVYVPMKELLPMVEPDNIIVDGWDISGLHLGDAMRRAEVLDVALQDQIYDQLAQLRPRPSIYDPDFIAANQSDRADNVIRGTRLEQYEQIRKDIRDFRERSGVDSVIVLWTANTERFADVQPGLNTTSQELIASLEANHSEVSPSTIFAMASIAEGCTYINGSPQNTFVPGLIQLAEEKNVFIAGDDFKSGQTKIKSVLVDFLVGAGIKPVSIASYNHLGNNDGKNLSAPQQFRSKEISKSNVVDDMVASNRLLYGPDEHPDHVVVIKYVPYVGDSKRAMDEYTSEIMMGGHNTLVIHNTCEDSLLATPLILDLVILGELSTRIQLRNAEKESAPWVPFKPVLSLLSYLCKAPLVPQGSQVVNSLFRQRAAIENILRGCIGLPPISHMTLEQRFDFSTITNEPPLKRVKILGQPCSVESVTNGKKLHANGHSNGSAKLATNGNGH

- binding: binds
B2: CaBP1 (protein, UniProt Q9V438 20-433)
chain: FYSPSDGVVELTPSNFDREVLKDDAIWVVEFYAPWCGHCQSLVPEYKKLAKALKGVVKVGSVNADADSTLSGQFGVRGFPTIKIFGANKKSPTDYNGQRTAKAIAEAALAEVKKKVQGVLGGGGGSSSGGSGSSSGDDVIELTEDNFDKLVLNSDDIWLVEFFAPWCGHCKNLAPEWAKAAKELKGKVKLGALDATAHQSKAAEYNVRGYPTIKFFPAGSKRASDAQEYDGGRTASDIVSWASDKHVANVPAPELIEIINESTFETACEGKPLCVVSVLPHILDCDAKCRNKFLDTLRTLGEKFKQKQWGWAWAEGGQQLALEESLEVGGFGYPAMAVVNFKKMKFSVLKGSFSKDGINEFLRDISYGRGHTAPVRGAKKPAIVSVDPWDGKDGQLPTEEDIDLSDIDLDKDEL
